± gives the standard deviation of the averaged measurements. The full ranking holds about 1,600 compounds; the median of “normalized growth (OD600, IQM-normalized) in LPM” is about 1, and the lowest 2% start at about 0.014. This is one part of the list.

The experiment has as its system Salmonella enterica serovar Typhimurium SL1344. The experiment is described as follows: normalized growth (OD600, IQM-normalized) in LPM (fraction of plate interquartile mean); higher = more bacterial growth (less inhibition). Conditions: LPM pH 5.8; 10 µM; 16 h.
`CCC(=O)Oc1ccc2c(c1)CC[C@@H]1[C@@H]2CC[C@]2(C)[C@@H](OC(=O)CC)CC[C@@H]12` displayed a normalized growth of 0.98 ± 0.093. The result for `Cc1cc2c(cc1S(N)(=O)=O)S(=O)(=O)CCC2` reads 0.95 ± 0.067; that for `CCCCCCc1ccc(O)cc1O.Nc1c2ccccc2nc2ccccc12`, 1.02 ± 0.021. `CC1(C)S[C@@H]2[C@H](NC(=O)[C@H](NC(=O)N3CCNC3=O)c3ccccc3)C(=O)N2[C@H]1C(=O)O` registered a normalized growth of 1.12 ± 0.048. The figure for `CC(C)c1ccc2oc3nc(N)c(C(=O)O)cc3c(=O)c2c1` is 0.947 ± 0.05; for `CCCCCCCCCc1ccc(OCCOCCOCCOCCOCCOCCOCCOCCOCCO)cc1` it is 0.936 ± 0.032; for `NC(=O)c1cc[n+](CC2=C(C(=O)O)N3C(=O)[C@@H](NC(=O)[C@@H](c4ccccc4)S(=O)(=O)[O-])[C@H]3SC2)cc1` it is 0.97 ± 0.072. The molecule `COC(=O)Nc1nc2cc(C(=O)c3ccccc3)ccc2[nH]1` gave a normalized growth of 0.965 ± 0.036. For `CC(CCc1ccccc1)NCC(O)c1ccc(O)c(C(N)=O)c1` (configuration not stated), the normalized growth came to 0.886 ± 0.049. The molecule `CCOC(=O)[C@H](CCc1ccccc1)N[C@@H](C)C(=O)N1Cc2ccccc2C[C@H]1C(=O)O` yielded a normalized growth of 1.04 ± 0.021. `Cc1oncc1C(=O)Nc1ccc(C(F)(F)F)cc1` registered a normalized growth of 0.942 ± 0.088. The result for `O=C(O)c1cccnc1Nc1cccc(C(F)(F)F)c1` reads 1.11 ± 0.033; that for `C[N+](C)(C)CCCCCC[N+](C)(C)C`, 0.966 ± 0.044.

As for `CN(C)/N=N/c1[nH]cnc1C(N)=O`, the normalized growth stood at 1.15 ± 0.064. `Cc1onc(-c2c(Cl)cccc2Cl)c1C(=O)N[C@@H]1C(=O)N2[C@@H]1SC(C)(C)[C@@H]2C(=O)O` came in with a normalized growth of 1.02 ± 0.036. The figure for `CN1C(C)(C)CCCC1(C)C` is 1.08 ± 0.058; for `CC(C)(C(=O)O)c1ccc(C(O)CCCN2CCC(C(O)(c3ccccc3)c3ccccc3)CC2)cc1` (configuration not stated) it is 0.993 ± 0.21. `CN(C)CCCN1c2ccccc2Sc2ccccc21` displayed a normalized growth of 1.02 ± 0.032. `NC(Cc1ccc(Cl)cc1)C(=O)O` (configuration not stated): the normalized growth worked out at 1.06 ± 0.043. As to `Cc1cc(C(C)(C)C)c(O)c(C)c1CC1=NCCN1`, the normalized growth amounted to 1.05 ± 0.024.

With `CSc1ccc2c(c1)C(N1CCN(C)CC1)Cc1ccccc1S2` (configuration not stated), the normalized growth came out at 1.2 ± 0.16.

For `CC(C(=O)O)c1ccc2c(c1)Cc1cccnc1O2` (configuration not stated), the normalized growth turned out to be 1.18 ± 0.056. In the case of `C[C@H]1COc2c(C3(N)CC3)c(F)cc3c(=O)c(C(=O)O)cn1c23`, the normalized growth turned out to be 0.008373 ± 7.5e-05. The molecule `CC(=O)Nc1ccccc1` returned a normalized growth of 0.94 ± 0.088. `COC(=O)C1=C(C)NC(C)=C(C(=O)OCCN2CCN(C(c3ccccc3)c3ccccc3)CC2)C1c1cccc([N+](=O)[O-])c1` (configuration not stated) gave a normalized growth of 0.958 ± 0.046. Take `C[N+]1(C)[C@@H]2CC[C@H]1C[C@@H](OC(=O)C(O)c1ccccc1)C2` (some centres not stated): the normalized growth came to 0.976 ± 0.081. `Oc1ncnc2[nH]ncc12` showed a normalized growth of 0.945 ± 0.069. `C[C@]12CCC(=O)C=C1CC[C@@H]1[C@@H]2[C@@H](O)C[C@@]2(C)[C@H]1CC[C@]2(O)C(=O)CO` showed a normalized growth of 0.95 ± 0.036. For `CNCCCC1c2ccccc2C=Cc2ccccc21`, the normalized growth was 0.966 ± 0.049. The figure for `CCOC(=O)C1=C[C@@H](OC(CC)CC)[C@H](NC(C)=O)[C@@H](N)C1` is 1.11 ± 0.058. The figure for `CCCc1cc(=O)[nH]c(=S)[nH]1` is 1.072 ± 0.0074; for `COc1ccc(CCN(C)CCCC(C#N)(c2ccc(OC)c(OC)c2)C(C)C)cc1OC` (configuration not stated) it is 0.924 ± 0.036. The molecule `CN(N=O)C(=O)N[C@H]1C(O)O[C@H](CO)[C@@H](O)[C@@H]1O` (mixture of isomers) came in with a normalized growth of 0.929 ± 0.021.

`CO/N=C(\C(=O)N[C@@H]1C(=O)N2C(C(=O)OCOC(=O)C(C)(C)C)=C(/C=C\c3scnc3C)CS[C@H]12)c1csc(N)n1` showed a normalized growth of 0.921 ± 0.015. In the case of `O=C(OC[C@H]1O[C@@H](OC(=O)c2cc(O)c(O)c(OC(=O)c3cc(O)c(O)c(O)c3)c2)[C@H](OC(=O)c2cc(O)c(O)c(OC(=O)c3cc(O)c(O)c(O)c3)c2)[C@@H](OC(=O)c2cc(O)c(O)c(OC(=O)c3cc(O)c(O)c(O)c3)c2)[C@@H]1OC(=O)c1cc(O)c(O)c(OC(=O)c2cc(O)c(O)c(O)c2)c1)c1cc(O)c(O)c(OC(=O)c2cc(O)c(O)c(O)c2)c1`, the normalized growth is 1.08 ± 0.013. The figure for `CCCCC(=O)O[C@H]1CC[C@H]2[C@@H]3CCc4cc(O)ccc4[C@H]3CC[C@]12C` is 1.08 ± 0.17; for `Cc1ccc(Nc2c(F)cccc2Cl)c(CC(=O)O)c1` it is 1.11 ± 0.053; for `CN1CCc2c(c3ccccc3n2Cc2ccccc2)C1` it is 1.14 ± 0.035. The molecule `Fc1ccc(C(c2ccc(F)cc2)N2CCN(C/C=C/c3ccccc3)CC2)cc1` yielded a normalized growth of 1.09 ± 0.039. For `Cc1cccc(C(=O)O)c1O`, the normalized growth was found to be 1.09 ± 0.034. Take `Cc1ccc2c(Br)cc(Br)c(OC(=O)c3ccccc3)c2n1`: the normalized growth is 0.726 ± 0.064. In turn, `CN[C@@H]1[C@H](O[C@H]2[C@H](O[C@H]3[C@H](O)[C@@H](O)[C@H](N=C(N)N)[C@@H](O)[C@@H]3N=C(N)N)O[C@@H](C)[C@]2(O)C=O)O[C@@H](CO)[C@H](O)[C@H]1O` came in with a normalized growth of 0.989 ± 0.053. In turn, `CC1(C)S[C@@H]2[C@H](NC(=O)[C@H](N)c3ccc(O)cc3)C(=O)N2[C@H]1C(=O)O` came in with a normalized growth of 0.945 ± 0.023. On to `COc1cccc2c1C(=O)c1c(O)c3c(c(O)c1C2=O)C[C@@](O)(C(=O)CO)C[C@@H]3O[C@H]1C[C@H](N)[C@H](O)[C@H](C)O1`, for which the normalized growth is 0.988 ± 0.015. Molecule `OCCOCCN1CCN(C2=Nc3ccccc3Sc3ccccc32)CC1` yielded a normalized growth of 1.09 ± 0.025. As for `COc1cc(O)c(C(=O)c2ccccc2)cc1S(=O)(=O)O`, the normalized growth was 1 ± 0.011. In the case of `CCCCCCCCCC(=O)N[C@@H](Cc1c[nH]c2ccccc12)C(=O)N[C@@H](CC(N)=O)C(=O)N[C@@H](CC(=O)O)C(=O)N[C@@H]1C(=O)NCC(=O)N[C@@H](CCCN)C(=O)N[C@@H](CC(=O)O)C(=O)N[C@H](C)C(=O)N[C@@H](CC(=O)O)C(=O)NCC(=O)N[C@H](CO)C(=O)N[C@@H]([C@H](C)CC(=O)O)C(=O)N[C@@H](CC(=O)c2ccccc2N)C(=O)O[C@@H]1C` [DAPTOMYCIN (5 millimolar/DMSO)], the normalized growth worked out at 1.02 ± 0.057.
